Source: PubChem BioAssay AID493246 (Drosophila RNAi Screening Center, 2011)
The screen tested about 21,000 reagents; below is a random part of those with a known target gene and a result. Over the whole deposit, 429 (2%) are marked active. 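Values are raw and not normalised between plates; calls rest on per-plate z-scores that were not deposited.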 The numbers tell different reagents against one gene apart. A plus sign joins genes that one reagent is predicted to hit. Not given: the amount of reagent, the time to read-out.

- Assay: 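Genome-wide search for dsRNAs that reduce cell number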 (primary screen)
- Cell system: Drosophila Kc and S2R+ cells
- Reagent: long dsRNA against Drosophila genes
- Read-out: 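Cell number per well after knock-down, printed as raw plate values; calls were based on per-plate z-scores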
- Scale: Kc cell number and S2R+ cell number: higher = more cells remaining
- Rule for the call: 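Counted as a hit if cell number falls by a z-score of at least 3 within its plate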

no.	gene	reagent	Kc cell number, rep 1	Kc cell number, rep 2	S2R+ cell number, rep 1	S2R+ cell number, rep 2	outcome
1	CG6432	1	1.45e6	1.55e6	1.13e6	1.17e6	inactive
2	CG30458	1	1.64e6	1.68e6	1.13e6	1.28e6	inactive
3	Msr-110	1	1.12e6	1.03e6	1.14e6	5.80e5	inactive
4	Csgalnact	1	1.52e6	1.56e6	1.31e6	1.35e6	inactive
5	Ugalt	1	1.76e6	1.82e6	1.10e6	1.26e6	inactive
6	CG9270	1	1.30e6	1.42e6	1.11e6	1.07e6	inactive
7	CG5726	1	1.39e6	1.43e6	1.19e6	1.26e6	inactive
8	CG15468	1	1.53e6	1.60e6	1.11e6	1.20e6	inactive
9	Ccdc114	1	1.57e6	1.62e6	1.00e6	1.05e6	inactive
10	cv-d	1	1.52e6	1.60e6	1.16e6	1.26e6	inactive
11	cv-d	2	1.45e6	1.49e6	9.59e5	1.08e6	inactive
12	cv-d	3	1.27e6	1.35e6	1.07e6	1.21e6	inactive
13	CG18473	1	1.83e6	1.98e6	1.40e6	1.56e6	inactive
14	CG7379	1	1.57e6	1.64e6	1.13e6	1.25e6	inactive
15	sNPF-R	1	1.51e6	1.63e6	1.36e6	1.37e6	inactive
16	CG14104	1	1.30e6	1.25e6	1.36e6	1.43e6	inactive
17	p38a	1	1.45e6	1.49e6	1.03e6	1.06e6	inactive
18	fest	1	1.52e6	1.52e6	1.16e6	1.24e6	inactive
19	vir-1	1	1.52e6	1.68e6	1.20e6	1.33e6	inactive
20	vir-1	2	1.46e6	1.56e6	9.48e5	1.03e6	inactive
21	CG32727	1	1.21e6	1.44e6	1.03e6	1.06e6	inactive
22	CG40583 (retired record)	1	1.47e6	1.63e6	1.11e6	1.10e6	inactive
23	CG12699	1	1.34e6	1.34e6	1.03e6	9.85e5	inactive
24	snRNA:U1:95Cc	1	1.44e6	1.45e6	6.20e5	6.70e5	active
25	CG4364	1	1.11e6	1.22e6	1.19e6	1.12e6	inactive
26	Cpr47Ec	1	1.50e6	1.61e6	1.31e6	1.47e6	inactive
27	rpr	1	1.35e6	1.44e6	1.13e6	1.24e6	inactive
28	TTLL15	1	1.65e6	1.81e6	1.21e6	1.28e6	inactive
29	CG34133	1	4.56e5		8.17e5		inactive
30	CG31819	1	1.53e6	1.61e6	1.04e6	1.26e6	inactive
31	Spn42Da	1	1.55e6	1.57e6	1.29e6	1.44e6	inactive
32	Roc1b + Cdc5	1	1.53e6	1.38e6	8.32e5	9.65e5	inactive
33	Lkb1	1	1.54e6	1.57e6	1.22e6	1.28e6	inactive
34	CG14408	1	5.27e5		7.60e5		inactive
35	P58IPK	1	1.76e6	1.78e6	1.38e6	1.50e6	inactive
36	Pu	1	1.30e6	1.37e6	9.74e5	1.10e6	inactive
37	uno	1	1.58e6	1.72e6	1.37e6	1.52e6	inactive
38	Nnp-1	1	1.59e6	1.80e6	1.20e6	1.40e6	inactive
39	MED11	1	4.88e5	7.12e5	5.21e5	6.62e5	active
40	egg	1	1.37e6	1.41e6	1.05e6	1.08e6	inactive
41	Ptpmeg	1	1.40e6	1.46e6	1.24e6	1.33e6	inactive
42	Cog1	1	1.64e6	1.64e6	1.20e6	1.33e6	inactive
43	CG14778	1	1.49e6	1.49e6	9.87e5	1.08e6	inactive
44	CG11413 + CG4622	1	1.85e6	1.93e6	1.28e6	1.37e6	inactive
45	CG15563	1	1.70e6	1.80e6	1.12e6	1.23e6	inactive
46	Nup205	1	1.23e6	1.33e6	9.73e5	1.04e6	inactive
47	CG14947	1	1.55e6	1.57e6	1.25e6	1.41e6	inactive
48	puf	1	1.65e6	1.71e6	8.51e5	9.62e5	inactive
49	CG8026	1	1.16e6	1.47e6	9.23e5	1.03e6	inactive
50	CG8026	2	1.48e6	1.54e6	1.32e6	1.47e6	inactive
51	CG17294	1	1.40e6	1.43e6	5.60e5	5.48e5	inactive
52	CG13053	1	1.33e6	1.46e6	1.30e6	1.40e6	inactive
53	CG3769	1	1.49e6	1.55e6	1.23e6	1.38e6	inactive
54	CG10055	1	1.50e6	1.58e6	1.39e6	1.44e6	inactive
55	YME1L	1	1.18e6	1.25e6	9.90e5	1.11e6	inactive
56	CG10514	1	1.73e6	1.54e6	1.10e6	1.22e6	inactive
57	CG32686	1	1.27e6	1.53e6	1.11e6	1.10e6	inactive
58	nkt	1	1.29e6	1.30e6	1.30e6	1.36e6	inactive
59	Cpr47Ed	1	1.51e6	1.67e6	1.40e6	1.53e6	inactive

Entries listed so far with an active call, once more:
gene	reagent	Kc cell number, rep 1	Kc cell number, rep 2	S2R+ cell number, rep 1	S2R+ cell number, rep 2	outcome
snRNA:U1:95Cc	1	1.44e6	1.45e6	6.20e5	6.70e5	active
MED11	1	4.88e5	7.12e5	5.21e5	6.62e5	active
